Tests used:
MDA-MB-231 = assay: Co-localization of probe with organelle trackers, live cell imaging; type: cell-based, human; details: live MDA-MB-231 cells, 1 µM
Source text: It is important to determine the intracellular accumulation of compound 9 as this may aid in identifying its intracellular interactions. To facilitate these experiments, a series of orthogonal fluorescent organelle markers were used for co-localization studies. The organelle marker set included indicators for the lysosome (Lysotracker Red), the mitochondria (MitoTracker Deep Red), and the endoplasmic reticulum (ER tracker Blue/White). Where applicable, nuclei were stained with Hoechst (Blue). All these markers were compatible with BODIPY-FL (green) to allow for flexible combinations. […] First, to evaluate the accumulation of compound 9a after 30 min treatment at 1 µM, washout experiments were conducted as shown in Figure 7A in the presence of Hoechst nuclear stain. Distinct green specks were observed near the nucleus of the cell.
Co-localization studies were conducted in 8-well chambered coverslips (ibidi GmbH µ-slide # 80826) for MDA-MB-231. Coverslips were first coated with 0.1% Gelatin for 30 min for better cell adherence. Cells were then plated in phenol red free medium at a density of 4 × 10^4 cells per well and incubated at 37 °C overnight. […]

SUP-B15 = assay: CTG viability assay (CellTiter-Glo, 72 h); type: cell-based, human; details: therapeutic index, EC50 PBMC / EC50 SUP-B15
Experimental: All human cell lines were incubated at 37 °C in a 5% CO2 atmosphere and maintained under sterile conditions. Cells were tested for Mycoplasma (Lonza, Alpharetta, GA, USA) using the manufacturer’s conditions prior to experiments. Cell lines were purchased from American Type Culture Collection (ATCC, Manassas, VA, USA) or Leibniz-Institute Deutsche Sammlung von Mikroorganismen und Zellkulturen GmbH (DSMZ, Braunschweig, Germany) and cultured without antibiotics unless stated. Leukemia cells were cultured in RPMI and supplemented with 10% fetal bovine serum (FBS, Hyclone, Logan, UT, USA). SUP-B15, and KOPN-8 lines were cultured in RPMI supplemented with 10% FBS (Hyclone), 1% GlutaMAX™, 1% Pen/Step, and 0.1% β-mercaptoethanol. BJ cells were cultured in EMEM media supplemented with 10% FBS (Hyclone). Breast cancer cells (MDA-MB-231 & SUM149) were cultured in DMEM and Ham’s F12 respectively, supplemented with 10% FBS, 1% GlutaMAX™, 1% Pen/Step, and 2 µM cortisol/1 µg/mL insulin for SUM149. Both cells were grown to 80% confluence densities as recommended by ATCC. PBMCs were supplemented with concanavalin-A (5 μg/mL) and IL-2 (50 U/ml). To test general cytotoxicity, the following cell numbers were used for 384 well plates: KOPN-8 (ACC 552, infant human B cell precursor acute lymphoblastic leukemia with MLL-MLLt1/ENL fusion, 1000 cells/well), SUP-B15 (ACC389, human B cell precursor acute lymphoblastic leukemia of pediatric second relapse carrying the ALL-variant (m-bcr) of BCR-ABL1 fusion gene (e1-a2), 1600 cells/well), NALM-06 (DSMZ ACC128, non-T/non-B ALL at relapse with P15INK4B and P16INK4A deletions, 1200 cells/well), UoC-B1 (pediatric BCP-ALL at second relapse with TCF3/E2A-HFL fusion, 1000 cells/well), BJ (CRL-2522, normal human foreskin fibroblast cells, 400 cells/well) and PBMCs (periphery blood monocyte cells from healthy donors, IBC#BDC046, 10,000 cells/well).
Cytotoxicity evaluation was performed using the CellTiter-Glo Luminescent Cell Viability Assay kit (G7570, Promega, Madison, WI, USA), according to the manufacturer’s instructions. Briefly, the cell concentrations used were experimentally determined to ensure logarithmic growth during the 72-h duration of the experiment, and avoid adverse effects on cell growth by DMSO exposure. 1 × 10^3–4.8 × 10^3 or 4 × 10^2–1.2 × 10^3 cells/well were seeded in 96 or 384-well white flat-bottomed plates (3610 or 8804BC, Corning, Corning, NY, USA) in 100 µL or 30 µL/well, respectively. The plates were incubated at 37 °C in 5% CO2 for 24 h before drugging. Test compounds (10 mM in DMSO) in nine 3-fold serial dilutions were dispensed via pintool (Biomek liquid handler, Beckman, Indianapolis, USA) to assay plates. The final concentration of DMSO was 0.3% (v/v) in each well. The positive controls included staurosporine (10 μM), and gambogic acid (10 μM). The plates were incubated for 72 h at 37 °C in 5% CO2, then quenched with CellTiter-Glo® (Promega, Madison, WI, USA, 50 µL/96 or 30 µL/384), centrifuged at 1000 rpm for 1 min and incubated at RT for 20 min. Luminescence was recorded with a plate reader (Envision, Perkin Elmer, Waltham, MA, USA). The mean luminescence of each experimental treatment group was normalized as a percentage of the mean intensity of untreated controls. EC50 values were calculated by Pipeline Pilot software (Accelrys, Enterprise Platform, San Diego, CA, USA).

Structure (SMILES): COC1=CC23CCCN2CCc2cc4c(cc2C3C1OC(=O)CCC1=[N+]2C(=Cc3c(C)cc(C)n3[B-]2(F)F)C=C1)OCO4 (stereo not drawn) [9a]
- co-localization with lysosomes (Lysotracker Red) (MDA-MB-231): co-localizes with lysosomes
- co-localization with mitochondria (MitoTracker Deep Red) (MDA-MB-231): no co-localization was detected

Structure (SMILES): COc1ccc(CC2c3cc(O)c(OC)cc3CCN2C)cc1O (stereo not drawn) [Compound 4]
- TI (PBMC/SUP-B15) (SUP-B15): >2.25

Structure (SMILES): COc1cc2c(cc1O)[C@H]1Cc3ccc(OC)c(O)c3CN1CC2 [Compound 5]
- TI (PBMC/SUP-B15) (SUP-B15): >1.48

Structure (SMILES): CCC1CN2CCc3cc(OC)c(OC)cc3C2CC1CC1NCCc2cc(O)c(OC)cc21 (stereo not drawn) [Compound 6]
- TI (PBMC/SUP-B15) (SUP-B15): >4.3

Structure (SMILES): COc1ccc2c(c[n+](C)c3c4cc5c(cc4ccc23)OCO5)c1OC [Compound 8, chelerythrine]
- TI (PBMC/SUP-B15) (SUP-B15): 2.8

Structure (SMILES): COC1=C[C@]23CCCN2CCc2cc4c(cc2[C@@H]3[C@@H]1O)OCO4 [Compound 9, cephalotaxine]
- TI (PBMC/SUP-B15) (SUP-B15): >7.7

Structure (SMILES): COC(=O)C[C@](O)(CCCC(C)(C)O)C(=O)O[C@@H]1C(OC)=C[C@]23CCCN2CCc2cc4c(cc2[C@H]13)OCO4 [Compound 10, homoharringtonine, reference compound]
- TI (PBMC/SUP-B15) (SUP-B15): 140

Structure (SMILES): CC(C)(O)CC[C@@H](O)[C@](C)(O)[C@H]1CC[C@@]2(O)C3=CC(=O)[C@@H]4C[C@@H](O)[C@@H](O)C[C@]4(C)[C@H]3CC[C@]12C [Compound 11]
- TI (PBMC/SUP-B15) (SUP-B15): >1.48

Structure (SMILES): C[C@H]([C@H](O)CCC(C)(C)O)[C@H]1CC[C@@]2(O)C3=CC(=O)[C@@H]4C[C@@H](O)[C@@H](O)C[C@]4(C)[C@H]3CC[C@]12C [Compound 12, ecdysone]
- TI (PBMC/SUP-B15) (SUP-B15): >2.15

Structure (SMILES): CC(C)CC[C@@H](O)[C@](C)(O)[C@H]1CC[C@@]2(O)C3=CC(=O)[C@]4(O)C[C@@H](O)[C@@H](O)C[C@]4(C)[C@H]3[C@H](O)C[C@]12C [Compound 13, muristerone A]
- TI (PBMC/SUP-B15) (SUP-B15): >4.5

Structure (SMILES): C/C=C1\C(=O)C[C@@]2(O)[C@@H]3CCC4=CC(=O)CC[C@]4(C)[C@H]3CC[C@]12C [Compound 14]
- TI (PBMC/SUP-B15) (SUP-B15): >2.5

From PMC6571673, “Cytostatic and Cytotoxic Natural Products against Cancer Cell Models” (Molecules, 2019)
